Data taken from patent US20180206529A1, “FAST-DISSOLVING, CO-CRYSTALLINE FORMS OF SODIUM CHLORIDE” (NESTEC S.A., priority 2015, published 2018).

What was measured:
[1] = Sensory evaluation of tablets, forced triangle test, co-crystal vs. dry-mix
[2] = Sensory profiling of tablets by trained panelists, co-crystal vs. dry mix reference; conditions: tablets with 25 mg NaCl, 95% confidence

Row | Structure (SMILES) | panelists, out of the correct answers, who found the co-crystal saltier ([1]; method 1) | panelists, out of the correct answers, who said it would dissolve faster ([1]; method 1) | correct answers in forced triangle test ([1]; method 1 (crunched, kept in mouth to dissolve slowly), out of 31 answers) | panelists, out of the correct answers, who found the co-crystal saltier ([1]; method 2) | panelists, out of the correct answers, who said it would dissolve faster ([1]; method 2) | correct answers in forced triangle test ([1]; method 2 (crunched and chewed constantly), out of 31 answers) | perceived melting vs. dry mix tablet [2] | perceived saltiness vs. dry mix tablet (upfront, overall, saltiness persistence, overall persistence) [2] | correct answers in forced triangle test ([1]; method 2 (crunched and chewed constantly), out of 28 answers)
1 | O.OC[C@H]1O[C@H](O)[C@H](O)[C@@H](O)[C@@H]1O.OC[C@H]1O[C@H](O)[C@H](O)[C@@H](O)[C@@H]1O.[Cl-].[Na+] [(Glucose)2•NaCl•H2O co-crystal, (α-D-Glucose)2⋅NaCl⋅H2O] | seven | four | 22 | six | four | 17 | significantly faster | significantly saltier | 
2 | O=C[C@H](O)[C@H](O)[C@H](O)CO.[Cl-].[Na+] [ribose⋅NaCl co-crystal, D-(−)-Ribose⋅NaCl] |  |  |  | six |  |  |  | significantly saltier | 19
